These are yes or no findings as the source states them, for the method shown.
Columns and labels:
[1] = target: T1, recombinant mouse laminin β3 chain C-terminal coiled-coil fragment (945–1168) (mouse) (UniProt Q61087); experiment: native gel or EMSA; mixtures of one β and one γ chain fragment; 10% non-denaturing PAGE (acid gels for basic complexes); mixtures reduced, heated to 70 °C for 5 min and cooled; run overnight at 50 V; Coomassie; bands confirmed by in-gel trypsin digestion and mass spectrometry; both purified
T1 sequence: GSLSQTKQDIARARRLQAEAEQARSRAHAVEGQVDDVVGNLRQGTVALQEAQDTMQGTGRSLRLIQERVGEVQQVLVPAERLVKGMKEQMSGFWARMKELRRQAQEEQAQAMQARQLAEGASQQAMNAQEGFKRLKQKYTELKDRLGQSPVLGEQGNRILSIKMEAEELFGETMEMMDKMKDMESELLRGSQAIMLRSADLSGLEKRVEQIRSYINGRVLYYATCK

[2] = target: T2, β3 + γ1 mixture of the recombinant mouse laminin coiled-coil fragments (mouse) (UniProt Q61087+P02468); experiment: native gel or EMSA; mixtures of one α, one β and one γ chain fragment; 10% non-denaturing PAGE (acid gels for basic complexes); mixtures reduced, heated to 70 °C for 5 min and cooled; run overnight at 50 V, room temperature, no cooling; Coomassie; bands confirmed by in-gel trypsin digestion and mass spectrometry; both purified
T2 sequence 1: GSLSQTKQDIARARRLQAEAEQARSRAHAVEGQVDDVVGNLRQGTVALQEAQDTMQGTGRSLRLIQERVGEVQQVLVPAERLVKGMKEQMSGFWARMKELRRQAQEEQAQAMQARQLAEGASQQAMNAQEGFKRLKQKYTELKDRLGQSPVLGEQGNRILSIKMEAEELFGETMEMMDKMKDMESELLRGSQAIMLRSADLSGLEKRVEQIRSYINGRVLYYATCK
T2 sequence 2: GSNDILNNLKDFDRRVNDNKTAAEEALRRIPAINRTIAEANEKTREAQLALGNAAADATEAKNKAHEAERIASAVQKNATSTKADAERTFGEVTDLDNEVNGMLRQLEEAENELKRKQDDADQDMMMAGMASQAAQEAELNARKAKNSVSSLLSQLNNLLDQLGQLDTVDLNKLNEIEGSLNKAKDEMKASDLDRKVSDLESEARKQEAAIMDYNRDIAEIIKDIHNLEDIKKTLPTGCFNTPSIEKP

[3] = target: T3, β1γ2 complex of the recombinant mouse laminin coiled-coil fragments (mouse) (UniProt P02469+Q61092); experiment: as above
T3 sequence 1: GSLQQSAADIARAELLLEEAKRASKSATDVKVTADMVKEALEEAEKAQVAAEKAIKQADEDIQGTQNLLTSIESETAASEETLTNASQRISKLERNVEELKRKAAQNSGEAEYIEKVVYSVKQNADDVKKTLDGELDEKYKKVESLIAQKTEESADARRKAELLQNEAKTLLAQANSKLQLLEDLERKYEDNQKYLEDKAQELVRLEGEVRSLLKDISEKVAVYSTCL
T3 sequence 2: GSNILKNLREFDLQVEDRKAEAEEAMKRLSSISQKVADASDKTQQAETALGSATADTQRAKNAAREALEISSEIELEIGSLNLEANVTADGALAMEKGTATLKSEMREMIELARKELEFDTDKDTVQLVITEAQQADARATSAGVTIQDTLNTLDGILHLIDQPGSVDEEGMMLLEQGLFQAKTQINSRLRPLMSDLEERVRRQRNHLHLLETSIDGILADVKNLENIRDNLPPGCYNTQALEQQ

[4] = target: T4, β3γ2 complex of the recombinant mouse laminin coiled-coil fragments (mouse) (UniProt Q61087+Q61092); experiment: as above
T4 sequence 1: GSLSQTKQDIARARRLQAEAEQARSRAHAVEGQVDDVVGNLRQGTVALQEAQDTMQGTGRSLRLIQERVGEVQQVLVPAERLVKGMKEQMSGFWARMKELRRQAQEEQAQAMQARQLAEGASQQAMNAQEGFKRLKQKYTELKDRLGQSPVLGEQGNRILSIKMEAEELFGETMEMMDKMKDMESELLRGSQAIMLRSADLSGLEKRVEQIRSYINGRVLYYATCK
T4 sequence 2: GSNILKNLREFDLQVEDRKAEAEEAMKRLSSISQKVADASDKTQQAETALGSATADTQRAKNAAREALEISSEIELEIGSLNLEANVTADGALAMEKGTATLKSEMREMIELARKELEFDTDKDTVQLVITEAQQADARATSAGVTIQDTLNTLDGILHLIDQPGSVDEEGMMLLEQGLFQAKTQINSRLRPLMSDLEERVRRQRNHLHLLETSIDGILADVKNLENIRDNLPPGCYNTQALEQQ

[5] = target: T5, β3 + γ3 mixture of the recombinant mouse laminin coiled-coil fragments (mouse) (UniProt Q61087+Q9R0B6); experiment: as above
T5 sequence 1: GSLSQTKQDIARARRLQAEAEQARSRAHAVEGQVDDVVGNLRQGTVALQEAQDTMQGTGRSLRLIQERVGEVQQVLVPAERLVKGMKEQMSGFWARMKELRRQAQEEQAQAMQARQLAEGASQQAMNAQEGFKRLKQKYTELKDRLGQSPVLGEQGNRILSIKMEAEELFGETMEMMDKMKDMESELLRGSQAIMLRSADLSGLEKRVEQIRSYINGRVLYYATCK
T5 sequence 2: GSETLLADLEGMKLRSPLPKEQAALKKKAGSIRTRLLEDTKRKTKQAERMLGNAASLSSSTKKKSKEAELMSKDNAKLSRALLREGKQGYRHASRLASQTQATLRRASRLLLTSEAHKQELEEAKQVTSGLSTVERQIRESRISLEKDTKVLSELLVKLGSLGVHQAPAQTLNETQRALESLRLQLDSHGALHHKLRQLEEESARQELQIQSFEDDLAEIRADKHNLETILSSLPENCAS

[6] = target: T6, β1γ3 complex of the recombinant mouse laminin coiled-coil fragments (mouse) (UniProt P02469+Q9R0B6); experiment: as above
T6 sequence 1: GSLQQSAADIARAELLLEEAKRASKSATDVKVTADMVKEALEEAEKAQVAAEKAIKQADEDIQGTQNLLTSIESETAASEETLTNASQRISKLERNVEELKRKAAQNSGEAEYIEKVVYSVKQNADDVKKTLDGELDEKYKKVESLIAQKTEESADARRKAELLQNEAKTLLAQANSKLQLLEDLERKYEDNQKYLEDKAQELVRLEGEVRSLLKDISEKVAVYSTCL
T6 sequence 2: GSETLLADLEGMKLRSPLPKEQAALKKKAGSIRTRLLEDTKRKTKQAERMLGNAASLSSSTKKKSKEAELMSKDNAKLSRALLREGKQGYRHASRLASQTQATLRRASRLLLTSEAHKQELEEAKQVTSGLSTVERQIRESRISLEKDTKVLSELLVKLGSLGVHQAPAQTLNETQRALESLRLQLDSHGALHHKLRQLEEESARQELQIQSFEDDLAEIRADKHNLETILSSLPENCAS

[7] = target: T7, β2γ2 complex of the recombinant mouse laminin coiled-coil fragments (mouse) (UniProt Q61292+Q61092); experiment: as above
T7 sequence 1: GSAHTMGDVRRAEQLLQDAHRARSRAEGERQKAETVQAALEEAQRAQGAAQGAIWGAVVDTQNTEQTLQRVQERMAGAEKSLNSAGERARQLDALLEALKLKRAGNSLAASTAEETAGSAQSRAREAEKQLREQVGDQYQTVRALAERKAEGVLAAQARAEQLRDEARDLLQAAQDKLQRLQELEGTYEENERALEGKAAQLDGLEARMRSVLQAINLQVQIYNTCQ
T7 sequence 2: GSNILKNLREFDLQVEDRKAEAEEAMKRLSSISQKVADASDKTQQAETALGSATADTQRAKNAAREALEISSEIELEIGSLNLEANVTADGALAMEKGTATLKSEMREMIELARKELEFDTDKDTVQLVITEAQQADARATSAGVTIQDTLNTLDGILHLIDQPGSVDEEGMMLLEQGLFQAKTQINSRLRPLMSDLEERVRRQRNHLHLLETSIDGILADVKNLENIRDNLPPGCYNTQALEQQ

[8] = target: T8, β2γ3 complex of the recombinant mouse laminin coiled-coil fragments (mouse) (UniProt Q61292+Q9R0B6); experiment: as above
T8 sequence 1: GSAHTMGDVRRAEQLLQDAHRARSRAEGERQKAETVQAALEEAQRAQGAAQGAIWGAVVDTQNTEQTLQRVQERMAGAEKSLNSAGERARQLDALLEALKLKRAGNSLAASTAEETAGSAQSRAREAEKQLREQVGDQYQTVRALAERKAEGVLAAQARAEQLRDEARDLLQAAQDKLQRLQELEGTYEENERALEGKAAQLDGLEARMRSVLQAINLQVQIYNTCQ
T8 sequence 2: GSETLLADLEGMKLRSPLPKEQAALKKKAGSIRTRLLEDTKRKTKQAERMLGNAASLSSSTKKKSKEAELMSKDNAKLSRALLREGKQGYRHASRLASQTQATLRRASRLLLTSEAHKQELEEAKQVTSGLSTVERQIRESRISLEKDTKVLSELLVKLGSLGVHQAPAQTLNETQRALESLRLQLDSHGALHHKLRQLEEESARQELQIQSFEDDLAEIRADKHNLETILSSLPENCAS

Measured: binding

B1: recombinant mouse laminin γ3 chain C-terminal coiled-coil fragment (1344–1581) (domain or fragment, UniProt Q9R0B6 1344-1581)
chain: GSETLLADLEGMKLRSPLPKEQAALKKKAGSIRTRLLEDTKRKTKQAERMLGNAASLSSSTKKKSKEAELMSKDNAKLSRALLREGKQGYRHASRLASQTQATLRRASRLLLTSEAHKQELEEAKQVTSGLSTVERQIRESRISLEKDTKVLSELLVKLGSLGVHQAPAQTLNETQRALESLRLQLDSHGALHHKLRQLEEESARQELQIQSFEDDLAEIRADKHNLETILSSLPENCAS
no binding: [1]

B2: recombinant mouse laminin α4 chain C-terminal coiled-coil fragment (616–842) (domain or fragment)
chain: GSASNVYENIANYVSEANETAELALNITDRIYDAVSGIDTQIIYHKDESDNLLNQARELQAKADSSNDEAVADTSRRVGGALWRKGALRDRLNDAVKQLQAAERGDAHQRLGQSKLFIEEANKTTAAVQQVTTPMANNLSNWSQNLQTFDSSAYNTAVDSARDAVRNLTEVVPQLLDQLRTVEQKRPASNISASIQRIRELIAQTRSVASKIQVSMMFDGQSAVEVHPK
notes: two residues (GlySer) left from the protease recognition site after thrombin cleavage; laminin α4 chain, mouse, C-terminal coiled-coil fragment, residues 616-842 of the native chain (227 residues); source: E. coli JM109(DE3), purified (Ni2+-Sepharose, denaturing, 8 M urea), 6xHis tag removed by thrombin; not shown: 6xHis, N-terminal, cleaved; pPEP-T leader (short C-terminal fragment of the …)
no binding: [2] | [3] | [4] | [5] | [6]

B3: recombinant mouse laminin α5 chain C-terminal coiled-coil fragment (2525–2748) (domain or fragment)
chain: GSNAYSSILQAVQAAEDAAGQALRQASRTWEMVVQRGLAAGARQLLANSSALEETILGHQGRLGLAQGRLQAAGIQLHNVWARKNQLAAQIQEAQAMLAMDTSETSEKIAHAKAVAAEALSTATHVQSQLQGMQKNVERWQSQLGGLQGQDLSQVERDASSSVSTLEKTLPQLLAKLSRLENRGVHNASLALSANIGRVRKLIAQARSAASKVKVSMKFNGRSGVR
notes: two residues (GlySer) left from the protease recognition site after thrombin cleavage; laminin α5 chain, mouse, C-terminal coiled-coil fragment, residues 2525-2748 of the native chain (224 residues); source: E. coli JM109(DE3), purified (Ni2+-Sepharose, denaturing, 8 M urea), 6xHis tag removed by thrombin; not shown: 6xHis, N-terminal, cleaved
no binding: [2] | [3] | [4] | [5] | [7] | [6]

B4: recombinant mouse laminin α1 chain C-terminal coiled-coil fragment (1911–2125) (domain or fragment)
chain: GSHVHSNIQTLTEEAEMLAADAHKTANKTDLISESLASRGKAVLQRSSRFLKESVSTRRKQQGITMKLDELKNLTSQFQESMDNIMKQANDSLAMLRESPGGMREKGRKARELAAAANESAVKTLEDVLALSLRVFNTSEDLSRVNATVQETNDLLHNSTMTTLLAGRKMKDMEMQANLLLDRLKPLKTLEENLSRNLSEIKLLISRARKQVASIKV
notes: two residues (GlySer) left from the protease recognition site after thrombin cleavage; laminin α1 chain, mouse, C-terminal coiled-coil fragment, residues 1911-2125 of the native chain (215 residues); source: E. coli JM109(DE3), purified (Ni2+-Sepharose, denaturing, 8 M urea), 6xHis tag removed by thrombin; not shown: 6xHis, N-terminal, cleaved; pPEP-T leader (short C-terminal fragment of the …)
no binding: [4] | [5] | [7] | [8]

— paper PMC2877795, “Laminin chain assembly is regulated by specific coiled-coil interactions” (Journal of Structural Biology, 2010)
